## Percent effect of library compounds

From ChEMBL document CHEMBL3988442, “University of Dundee, Small-Polar-MMV Screening Library” (2021).

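Whole-parasite assay of Trypanosoma brucei over 72 hours; the read-out is not stated. Tested at 30 µM. Higher reads as stronger inhibition (inferred: compounds with an IC50 in retests scored well above the rest). Values scatter widely below zero; nearly all retest evidence comes from the higher of the two concentrations used. Of about 64,000 compounds tested this way, about 940 (1.5%) reached 50% or more in at least one test.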

Values are the deposited “Percent Effect”, in %. The controls that fix the scale are not given in the record; negative values are as filed. Compounds were drawn at random from those tested, without regard to their results.

CC(O)CN1CCC(CNCc2cccc(C(N)=O)c2)CC1 (centres undefined) read 4.491%. With O=C(O)C1(Cc2ccccc2F)CCCN(c2ncnc3[nH]ccc23)C1 (centres undefined) the screen gave -70.61%. Result for Cc1cnc2n(c1=O)C(CC(=O)NCc1ccco1)CS2 (centres undefined) was -8.212%. CC(C)(O)CCc1cccc(C(=O)NCCC2CCOC2)c1 (centres undefined) read -1.907%. With COc1cccc(/C=C/CCN2CCC(C(=O)N3CCCC3)CC2)c1 the screen gave -29.08%. CC(NC(=O)CN(C)S(C)(=O)=O)c1ccc(F)cc1 (centres undefined) read -4.465%.

CCCc1nc(C)cc(N2CCC3(CCC(=O)N(CC4CC4)C3)CC2)n1 gave -37.03%. O=C(c1cnccn1)N1CCC(Oc2ncccc2Cl)CC1 read -8.452%. Result for CCCC(=O)NC1CCCN(c2nc3ccccc3cc2CO)C1 (centres undefined) was -25.01%. Result for COc1ncccc1NC(=O)N1CCCC1c1cc(C)no1 (centres undefined) was -21.19%. Result for CC(=O)N1CCCC(Cc2nccn2C)C1 (centres undefined) was -16.85%. With Cc1ccc(C(=O)N2CCOCC2)cc1NCc1ccsc1 the screen gave -11.37%.

For COCC(=O)N1CCCN(Cc2cc(O)c3ccccc3n2)CC1 the result was -26.02%. For CN(Cc1ccccc1)CC(O)Cn1cnc2ccsc2c1=O (centres undefined) the result was -7.756%. For N[C@@H](Cc1c[nH]cn1)C(=O)N1CCC(Oc2ccc(Cl)cc2)CC1 the result was -1.571%. For Cc1cc(C)n(-c2cncc(NCCNC(=O)c3cccnc3)n2)n1 the result was -2.94%. With CC(C)OCCC(=O)NCC(O)c1c(F)cccc1F (centres undefined) the screen gave -4.528%. [H][C@]12CN(CCc3cccc(F)c3)CC[C@@]1(O)CCN(S(=O)(=O)N(C)C)C2 gave -3.658%.

For O=C(O)C(F)(F)F.[H][C@@]12CCN(CC3CC3)C[C@@]1([H])O[C@H](c1nc(C)no1)C2 the result was -88.95%. For Cc1nccn1CC1CCCN1S(=O)(=O)Cc1cccc(C#N)c1 (centres undefined) the result was -13.33%. With [H][C@]12CNC[C@@]1(C(=O)N1CCN(Cc3ncccc3C)CC1)CN(C)C2 the screen gave 25.28%. Result for COCc1nc(C(=O)N2CCCC2c2cccc(C)c2)cs1 (centres undefined) was -8.578%. For COc1ccc(-c2noc(CN3CCc4cncnc4C3)n2)cc1 the result was 7.758%. For CC(COc1ccccc1)NS(C)(=O)=O (centres undefined) the result was -14.45%.

Result for CC(C)C(C)(C#N)NC(=O)Cn1nnc(-c2cc3ccccc3o2)n1 (centres undefined) was -39.26%. OC(c1cnn(-c2ccccc2)c1)C(F)(F)F (centres undefined) read -14.69%. COc1cccc(C2CCN(c3ccc4cc[nH]c4n3)C2)c1OC (centres undefined) gave 14.01%. Result for Cc1ccc(C(=O)NCCCN(C)S(C)(=O)=O)c(=O)[nH]1 was -11.46%. With O=C(c1ccc[nH]1)N1CCOCC2(CCN(C3CCOCC3)C2)C1 (centres undefined) the screen gave -0.5726%. With Cc1cc(C(=O)N[C@H]2CC[C@@]3(CCC(=O)N3CC3CC3)CC2)no1 the screen gave -25.21%.

CN(Cc1cn(CC2CCNCC2)nn1)CC1CCCCO1 (centres undefined) read -45.96%. For Cc1cc(C)c2nc(C)c(C(=O)N3CCC(CCN(C)C)CC3)cc2c1 the result was 11.59%. For Cc1cc(C(=O)NCc2ccccc2CN(C)Cc2ccco2)on1 the result was -74.06%. Cc1ccc(OC2(C(=O)O)CCN(C(=O)c3cccs3)CC2)cn1 gave -25.32%.

The first 4 entries again:

Compound,Percent Effect
CC(O)CN1CCC(CNCc2cccc(C(N)=O)c2)CC1 (centres undefined),4.491
O=C(O)C1(Cc2ccccc2F)CCCN(c2ncnc3[nH]ccc23)C1 (centres undefined),-70.61
Cc1cnc2n(c1=O)C(CC(=O)NCc1ccco1)CS2 (centres undefined),-8.212
CC(C)(O)CCc1cccc(C(=O)NCCC2CCOC2)c1 (centres undefined),-1.907